Test results published in the supplement of paper PMC12823440, “Inhibitors supercharge kinase turnover through native proteolytic circuits” (Nature, 2025).
Where a name gives a salt, the structure may show the parent alone. This is one part of the list. The calls rarely recur for the same compound in another form.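 Kinases were expressed as nanoluciferase fusions in K562 cells and luminescence was read every 4 h between 2 and 18 h as percent of control, DMSO set to 100% and a positive control to 0%. A time point counts as decreased when the signal drops significantly (2 sigma). The hit call is the authors' own, does not follow from the count of time points alone, and its rule is not shown.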

Chains of the proteins cited; added tags and fusions are not shown. Lines headed by an entry give the natural chain unless they say otherwise; changes in a name come on top.
UniProt O15530: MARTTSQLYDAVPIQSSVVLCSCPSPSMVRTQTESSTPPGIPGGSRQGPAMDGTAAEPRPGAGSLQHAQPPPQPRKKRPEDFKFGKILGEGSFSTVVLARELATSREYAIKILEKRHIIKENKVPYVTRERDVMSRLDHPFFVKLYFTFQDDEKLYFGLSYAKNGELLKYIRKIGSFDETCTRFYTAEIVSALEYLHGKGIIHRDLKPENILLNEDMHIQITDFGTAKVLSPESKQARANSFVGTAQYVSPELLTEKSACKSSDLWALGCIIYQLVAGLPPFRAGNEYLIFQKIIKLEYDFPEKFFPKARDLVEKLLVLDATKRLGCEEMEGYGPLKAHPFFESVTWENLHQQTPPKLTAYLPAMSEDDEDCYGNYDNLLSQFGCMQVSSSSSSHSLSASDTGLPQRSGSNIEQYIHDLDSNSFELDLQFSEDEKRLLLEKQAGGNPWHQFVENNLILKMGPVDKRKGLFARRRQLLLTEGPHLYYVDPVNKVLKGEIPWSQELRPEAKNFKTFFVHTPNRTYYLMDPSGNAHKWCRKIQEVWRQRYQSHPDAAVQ
UniProt P42356, whole entry, looked up: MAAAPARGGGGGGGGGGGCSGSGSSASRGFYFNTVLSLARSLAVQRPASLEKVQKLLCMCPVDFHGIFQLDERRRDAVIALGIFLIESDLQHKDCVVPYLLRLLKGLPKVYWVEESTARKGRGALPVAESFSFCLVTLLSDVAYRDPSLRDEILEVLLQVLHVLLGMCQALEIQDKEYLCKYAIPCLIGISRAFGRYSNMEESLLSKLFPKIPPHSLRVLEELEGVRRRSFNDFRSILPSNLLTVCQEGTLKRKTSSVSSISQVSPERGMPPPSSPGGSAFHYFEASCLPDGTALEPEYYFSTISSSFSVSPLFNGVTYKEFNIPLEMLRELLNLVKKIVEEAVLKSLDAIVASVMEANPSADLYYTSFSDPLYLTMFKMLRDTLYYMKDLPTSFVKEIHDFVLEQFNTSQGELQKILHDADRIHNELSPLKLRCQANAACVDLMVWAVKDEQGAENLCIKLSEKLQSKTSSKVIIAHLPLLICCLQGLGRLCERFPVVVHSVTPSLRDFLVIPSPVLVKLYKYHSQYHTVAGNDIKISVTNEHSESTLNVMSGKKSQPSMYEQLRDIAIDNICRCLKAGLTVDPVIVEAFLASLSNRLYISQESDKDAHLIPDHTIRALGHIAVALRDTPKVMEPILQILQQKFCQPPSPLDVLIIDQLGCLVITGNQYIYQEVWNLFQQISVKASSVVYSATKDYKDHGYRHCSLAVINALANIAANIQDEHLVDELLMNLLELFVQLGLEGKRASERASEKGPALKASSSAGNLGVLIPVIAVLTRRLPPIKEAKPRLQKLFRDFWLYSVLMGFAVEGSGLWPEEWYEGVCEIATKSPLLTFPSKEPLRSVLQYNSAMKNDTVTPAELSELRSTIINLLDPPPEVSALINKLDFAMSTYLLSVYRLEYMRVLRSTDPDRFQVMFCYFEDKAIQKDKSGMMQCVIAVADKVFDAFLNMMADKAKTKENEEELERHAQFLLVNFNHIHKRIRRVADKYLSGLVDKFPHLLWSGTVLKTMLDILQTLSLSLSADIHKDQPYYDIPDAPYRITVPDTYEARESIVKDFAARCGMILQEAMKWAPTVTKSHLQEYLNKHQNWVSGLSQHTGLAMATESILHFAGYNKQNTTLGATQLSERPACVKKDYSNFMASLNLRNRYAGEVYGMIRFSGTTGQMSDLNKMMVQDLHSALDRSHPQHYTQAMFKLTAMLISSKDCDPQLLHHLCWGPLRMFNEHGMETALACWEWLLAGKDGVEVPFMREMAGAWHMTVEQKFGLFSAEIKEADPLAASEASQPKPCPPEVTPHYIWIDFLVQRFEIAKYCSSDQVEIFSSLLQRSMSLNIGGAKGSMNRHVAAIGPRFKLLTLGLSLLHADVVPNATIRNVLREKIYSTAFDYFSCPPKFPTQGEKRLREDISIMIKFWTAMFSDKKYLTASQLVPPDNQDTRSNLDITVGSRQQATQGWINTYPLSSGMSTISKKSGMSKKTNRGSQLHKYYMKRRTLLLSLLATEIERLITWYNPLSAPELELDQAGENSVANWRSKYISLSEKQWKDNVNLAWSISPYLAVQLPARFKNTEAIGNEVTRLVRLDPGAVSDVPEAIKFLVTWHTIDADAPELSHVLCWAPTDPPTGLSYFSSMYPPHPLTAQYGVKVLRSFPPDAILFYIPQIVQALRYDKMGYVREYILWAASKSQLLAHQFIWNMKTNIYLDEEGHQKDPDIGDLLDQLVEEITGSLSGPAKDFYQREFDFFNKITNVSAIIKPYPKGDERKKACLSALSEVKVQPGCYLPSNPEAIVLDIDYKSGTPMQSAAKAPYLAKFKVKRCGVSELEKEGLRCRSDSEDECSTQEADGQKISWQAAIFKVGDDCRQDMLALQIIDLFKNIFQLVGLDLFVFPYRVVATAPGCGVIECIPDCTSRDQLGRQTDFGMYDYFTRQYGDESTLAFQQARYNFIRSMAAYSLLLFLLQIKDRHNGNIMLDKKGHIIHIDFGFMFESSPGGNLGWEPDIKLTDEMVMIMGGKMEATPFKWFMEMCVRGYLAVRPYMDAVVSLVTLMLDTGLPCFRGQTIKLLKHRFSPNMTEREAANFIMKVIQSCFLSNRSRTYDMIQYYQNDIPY
UniProt Q9UBF8: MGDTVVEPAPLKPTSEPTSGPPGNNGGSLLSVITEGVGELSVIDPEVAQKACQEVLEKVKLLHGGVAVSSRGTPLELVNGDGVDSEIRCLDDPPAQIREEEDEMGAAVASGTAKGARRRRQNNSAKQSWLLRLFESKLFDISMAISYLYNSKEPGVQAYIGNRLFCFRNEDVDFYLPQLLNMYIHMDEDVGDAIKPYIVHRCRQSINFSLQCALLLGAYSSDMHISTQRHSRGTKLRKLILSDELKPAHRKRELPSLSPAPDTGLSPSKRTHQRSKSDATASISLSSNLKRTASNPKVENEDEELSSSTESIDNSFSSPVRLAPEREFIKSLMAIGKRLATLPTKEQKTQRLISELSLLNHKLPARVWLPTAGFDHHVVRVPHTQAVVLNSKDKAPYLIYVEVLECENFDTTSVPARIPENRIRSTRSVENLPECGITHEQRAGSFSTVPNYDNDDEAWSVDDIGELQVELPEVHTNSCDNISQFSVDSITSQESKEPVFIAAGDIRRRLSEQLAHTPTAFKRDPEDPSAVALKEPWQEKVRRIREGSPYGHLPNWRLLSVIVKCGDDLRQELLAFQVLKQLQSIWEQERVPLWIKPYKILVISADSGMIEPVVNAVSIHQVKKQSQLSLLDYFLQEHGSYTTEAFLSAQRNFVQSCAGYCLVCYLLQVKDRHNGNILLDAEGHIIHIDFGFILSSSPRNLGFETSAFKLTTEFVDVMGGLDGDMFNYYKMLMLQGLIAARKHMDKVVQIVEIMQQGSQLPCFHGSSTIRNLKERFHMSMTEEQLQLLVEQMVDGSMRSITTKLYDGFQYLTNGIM
UniProt P53350, whole entry: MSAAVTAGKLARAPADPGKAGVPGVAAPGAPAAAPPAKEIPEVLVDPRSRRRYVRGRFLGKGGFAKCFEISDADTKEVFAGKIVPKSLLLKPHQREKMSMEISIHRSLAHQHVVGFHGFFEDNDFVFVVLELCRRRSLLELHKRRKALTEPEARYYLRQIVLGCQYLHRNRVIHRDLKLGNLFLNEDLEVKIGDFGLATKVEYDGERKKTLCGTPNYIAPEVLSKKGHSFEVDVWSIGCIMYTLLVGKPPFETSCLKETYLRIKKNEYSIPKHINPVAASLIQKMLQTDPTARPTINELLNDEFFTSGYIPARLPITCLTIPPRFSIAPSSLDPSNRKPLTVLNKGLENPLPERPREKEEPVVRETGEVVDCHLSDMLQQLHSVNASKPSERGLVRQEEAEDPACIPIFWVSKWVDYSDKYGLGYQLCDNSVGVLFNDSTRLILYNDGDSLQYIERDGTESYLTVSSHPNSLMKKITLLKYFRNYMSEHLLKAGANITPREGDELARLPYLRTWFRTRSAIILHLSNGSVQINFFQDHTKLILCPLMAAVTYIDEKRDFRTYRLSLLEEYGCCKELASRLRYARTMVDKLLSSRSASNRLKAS
UniProt Q13131: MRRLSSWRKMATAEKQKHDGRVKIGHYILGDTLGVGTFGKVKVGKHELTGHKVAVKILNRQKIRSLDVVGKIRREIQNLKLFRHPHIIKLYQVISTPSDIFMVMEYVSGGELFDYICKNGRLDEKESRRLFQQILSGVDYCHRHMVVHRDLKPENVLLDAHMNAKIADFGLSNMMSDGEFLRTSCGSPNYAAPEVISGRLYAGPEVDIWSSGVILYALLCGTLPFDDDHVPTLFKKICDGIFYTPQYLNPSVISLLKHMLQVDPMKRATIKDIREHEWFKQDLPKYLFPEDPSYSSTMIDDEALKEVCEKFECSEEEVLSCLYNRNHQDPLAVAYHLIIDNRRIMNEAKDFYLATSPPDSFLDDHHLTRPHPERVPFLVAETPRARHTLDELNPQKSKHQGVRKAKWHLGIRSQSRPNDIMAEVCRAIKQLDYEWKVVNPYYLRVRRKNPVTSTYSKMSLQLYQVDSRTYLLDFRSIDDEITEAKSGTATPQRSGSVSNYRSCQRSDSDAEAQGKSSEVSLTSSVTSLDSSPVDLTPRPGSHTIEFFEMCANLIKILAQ
UniProt Q05397, whole entry, looked up: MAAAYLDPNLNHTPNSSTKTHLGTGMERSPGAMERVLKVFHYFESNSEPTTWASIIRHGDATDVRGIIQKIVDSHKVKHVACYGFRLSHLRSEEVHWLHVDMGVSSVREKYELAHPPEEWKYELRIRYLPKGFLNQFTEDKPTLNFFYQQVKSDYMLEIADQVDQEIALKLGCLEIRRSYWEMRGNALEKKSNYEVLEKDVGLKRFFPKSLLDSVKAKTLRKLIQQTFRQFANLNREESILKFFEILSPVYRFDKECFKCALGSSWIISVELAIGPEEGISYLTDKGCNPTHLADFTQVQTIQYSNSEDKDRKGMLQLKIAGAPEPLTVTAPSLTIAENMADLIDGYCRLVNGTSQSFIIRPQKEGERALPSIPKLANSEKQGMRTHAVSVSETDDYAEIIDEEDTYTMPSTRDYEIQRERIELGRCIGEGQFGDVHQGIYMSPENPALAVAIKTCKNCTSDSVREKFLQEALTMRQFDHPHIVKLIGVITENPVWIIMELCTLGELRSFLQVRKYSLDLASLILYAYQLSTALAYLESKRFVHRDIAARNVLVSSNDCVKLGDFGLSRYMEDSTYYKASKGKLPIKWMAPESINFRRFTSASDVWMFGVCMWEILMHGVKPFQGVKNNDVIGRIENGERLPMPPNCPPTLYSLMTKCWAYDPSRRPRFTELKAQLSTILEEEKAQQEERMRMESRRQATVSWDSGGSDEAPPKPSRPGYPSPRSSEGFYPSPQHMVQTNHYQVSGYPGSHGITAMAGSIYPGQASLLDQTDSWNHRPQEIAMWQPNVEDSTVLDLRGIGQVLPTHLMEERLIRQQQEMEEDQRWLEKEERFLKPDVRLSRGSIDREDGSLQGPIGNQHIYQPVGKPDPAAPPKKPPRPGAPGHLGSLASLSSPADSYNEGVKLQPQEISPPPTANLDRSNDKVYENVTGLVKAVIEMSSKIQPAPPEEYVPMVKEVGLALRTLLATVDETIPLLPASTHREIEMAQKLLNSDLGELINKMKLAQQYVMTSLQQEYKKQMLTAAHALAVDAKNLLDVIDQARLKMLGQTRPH

Tests used:
Experiment in all cases: kinase-Nluc reporter destabilization hit call (1 = scored as downregulated) (binary); higher = compound decreases kinase abundance
Settings in all cases: K562; 2-18 h
PDPK1 = PDPK1 (UniProt O15530)
PIK4CA = PIK4CA (UniProt P42356)
PIK4CB = PIK4CB (UniProt Q9UBF8)
PLK1 = PLK1 (UniProt P53350)
PRKAA1 = PRKAA1 (UniProt Q13131)
PRKCA = PRKCA (UniProt P17252)
PTK2 = PTK2 (UniProt Q05397)
PTK2B = PTK2B (UniProt Q14289)
RAF1 = RAF1 (UniProt P04049)
[1] = molecular target: RAF1_S257L (clone: RAF1_mut) (UniProt P04049)

Row | SMILES | kinase-Nluc reporter destabilization hit call (PDPK1) | kinase-Nluc reporter destabilization hit call (PIK4CA) | kinase-Nluc reporter destabilization hit call (PIK4CB) | kinase-Nluc reporter destabilization hit call (PLK1) | kinase-Nluc reporter destabilization hit call (PRKAA1) | kinase-Nluc reporter destabilization hit call (PRKCA) | kinase-Nluc reporter destabilization hit call (PTK2) | kinase-Nluc reporter destabilization hit call (PTK2B) | kinase-Nluc reporter destabilization hit call (RAF1) | kinase-Nluc reporter destabilization hit call [1]
1 | N#CC(C#N)=Cc1ccc([N+](=O)[O-])c(O)c1 (10 µM) | inactive: 0 | inactive: 0 | inactive: 0 | inactive: 0 | inactive: 0 | inactive: 0 | inactive: 0 | inactive: 0 | inactive: 0 | inactive: 0
2 | C[C@H]1CC[C@]2(NC1)O[C@H]1C[C@H]3[C@@H]4CC[C@H]5C[C@@H](O)CC[C@]5(C)[C@H]4CC[C@]3(C)[C@H]1[C@@H]2C [Tomatidine (hydrochloride)] (10 µM) | inactive: 0 | inactive: 0 | inactive: 0 | inactive: 0 | inactive: 0 | inactive: 0 | inactive: 0 | inactive: 0 | inactive: 0 | inactive: 0
3 | CC1C(=O)OC2C(O)C34C5OC(=O)C3(OC3OC(=O)C(O)C34C(C(C)(C)C)C5O)C12O (stereo not given) [Ginkgolide C] (10 µM) | inactive: 0 | inactive: 0 | inactive: 0 | inactive: 0 | inactive: 0 | inactive: 0 | inactive: 0 | inactive: 0 | inactive: 0 | inactive: 0
4 | O=c1cc(O)c2ccccc2o1 [4-Hydroxycoumarin] (10 µM) | inactive: 0 | inactive: 0 | inactive: 0 | inactive: 0 | inactive: 0 | inactive: 0 | inactive: 0 | inactive: 0 | inactive: 0 | inactive: 0
5 | COc1ccc(/C=C/c2cc(OC)c(OC)c(OC)c2)cc1 (2.5 µM) | inactive: 0 | inactive: 0 | inactive: 0 | inactive: 0 | inactive: 0 | inactive: 0 | inactive: 0 | inactive: 0 | inactive: 0 | inactive: 0
6 | C=CC(=O)N[C@H]1C=C(C)c2c(-c3cnc4ccccc4c3)c3c(N)ncnc3n2C1 (10 µM) | inactive: 0 | inactive: 0 | inactive: 0 | inactive: 0 | inactive: 0 | inactive: 0 | inactive: 0 | inactive: 0 | inactive: 0 | inactive: 0
7 | COc1ccc2c(c1OC)C(OC)N(C)c1c-2ccc2cc3c(cc12)OCO3 (stereo not given) [Angoline] (10 µM) | inactive: 0 | inactive: 0 | inactive: 0 | inactive: 0 | inactive: 0 | inactive: 0 | inactive: 0 | inactive: 0 | inactive: 0 | inactive: 0
8 | C[C@H]1CC[C@]2(NC1)O[C@H]1C[C@H]3[C@@H]4CC[C@H]5C[C@@H](O)CC[C@]5(C)[C@H]4CC[C@]3(C)[C@H]1[C@@H]2C [Tomatidine] (2 µM) | inactive: 0 | inactive: 0 | inactive: 0 | inactive: 0 | inactive: 0 | inactive: 0 | inactive: 0 | inactive: 0 | inactive: 0 | inactive: 0
9 | Nc1ncnc2c1ncn2[C@@H]1O[C@@H]2COP(O)(=S)O[C@H]2[C@H]1O (stereo not given in full) [Sp-cAMPS (sodium salt)] (10 µM) | inactive: 0 | inactive: 0 | inactive: 0 | inactive: 0 | inactive: 0 | inactive: 0 | inactive: 0 | inactive: 0 | inactive: 0 | inactive: 0
10 | N#CC(C#N)=NNc1cccc(Cl)c1 (2.5 µM) | inactive: 0 | inactive: 0 | inactive: 0 | inactive: 0 | inactive: 0 | inactive: 0 | inactive: 0 | inactive: 0 | inactive: 0 | inactive: 0
11 | Cc1ccccc1-n1c(Cn2cnc3c(N)ncnc32)nc2cccc(C)c2c1=O (10 µM) | inactive: 0 | inactive: 0 | inactive: 0 | inactive: 0 | inactive: 0 | inactive: 0 | inactive: 0 | inactive: 0 | inactive: 0 | inactive: 0
12 | COc1ccc(N(C(=O)Oc2c(C)cccc2C)c2ccnc(Nc3ccc(N4CCN(C)CC4)cc3)n2)c(OC)c1 (2.5 µM) | inactive: 0 | inactive: 0 | inactive: 0 | inactive: 0 | inactive: 0 | inactive: 0 | inactive: 0 | inactive: 0 | inactive: 0 | inactive: 0
13 | C=C[C@H]1CN2CC[C@]3(C(=O)Nc4ccccc43)[C@@H]2C[C@@H]1/C(=C\OC)C(=O)OC [Corynoxeine] (2 µM) | inactive: 0 | inactive: 0 | inactive: 0 | inactive: 0 | inactive: 0 | inactive: 0 | inactive: 0 | inactive: 0 | inactive: 0 | inactive: 0
14 | CCCCNc1nc(N)c2[nH]c(=O)n(Cc3ccc(C)nc3)c2n1 (10 µM) | inactive: 0 | inactive: 0 | inactive: 0 | inactive: 0 | inactive: 0 | inactive: 0 | inactive: 0 | inactive: 0 | inactive: 0 | inactive: 0
15 | CC(=O)OC(C)(C)/C=C/C(=O)[C@](C)(O)[C@H]1[C@H](O)C[C@@]2(C)[C@@H]3CC=C4[C@@H](C=C(O)C(=O)C4(C)C)[C@]3(C)C(=O)C[C@]12C [Cucurbitacin E] (2.5 µM) | active: 1 | inactive: 0 | inactive: 0 | inactive: 0 | inactive: 0 | inactive: 0 | inactive: 0 | inactive: 0 | inactive: 0 | inactive: 0
16 | O=C(O)c1sc2cc(Cl)ccc2c1Cl (10 µM) | inactive: 0 | inactive: 0 | inactive: 0 | inactive: 0 | inactive: 0 | inactive: 0 | inactive: 0 | inactive: 0 | inactive: 0 | inactive: 0
17 | COc1cc2c(cc1F)C(c1ccccc1Cl)=Nc1c(n[nH]c1C)N2 (0.5 µM) | inactive: 0 | inactive: 0 | inactive: 0 | inactive: 0 | inactive: 0 | inactive: 0 | inactive: 0 | inactive: 0 | inactive: 0 | inactive: 0
18 | O=C1C=CC[C@@H]2[C@H]3CCCN4CCC[C@@H](CN12)[C@@H]34 [Sophocarpine] (10 µM) | inactive: 0 | inactive: 0 | inactive: 0 | inactive: 0 | inactive: 0 | inactive: 0 | inactive: 0 | inactive: 0 | inactive: 0 | inactive: 0
19 | CC(C)=CC[C@@H](OC(=O)CC(C)(C)O)C1=CC(=O)c2c(O)ccc(O)c2C1=O [β-Hydroxyisovalerylshikonin] (2.5 µM) | inactive: 0 | inactive: 0 | inactive: 0 | inactive: 0 | inactive: 0 | inactive: 0 | inactive: 0 | inactive: 0 | inactive: 0 | inactive: 0
20 | CC(=O)c1c(O)c(C)c(O)c(Cc2c(O)c3c(c(C(=O)/C=C/c4ccccc4)c2O)OC(C)(C)C=C3)c1O [Rottlerin] (2 µM) | inactive: 0 | inactive: 0 | inactive: 0 | inactive: 0 | inactive: 0 | inactive: 0 | inactive: 0 | inactive: 0 | inactive: 0 | inactive: 0
21 | CC(=O)Oc1ccc(/C=C/c2cc(OC(C)=O)cc(OC(C)=O)c2)cc1 [Triacetylresveratrol] (10 µM) | inactive: 0 | inactive: 0 | inactive: 0 | inactive: 0 | inactive: 0 | inactive: 0 | inactive: 0 | inactive: 0 | inactive: 0 | inactive: 0
22 | C=CC(=O)Nc1ccc2[nH]c(=O)n(C3CCN(Cc4ccc(-c5nc6cc[nH]c(=O)c6cc5-c5ccccc5)cc4)CC3)c2c1 [Borussertib] (10 µM) | inactive: 0 | inactive: 0 | inactive: 0 | inactive: 0 | inactive: 0 | inactive: 0 | inactive: 0 | inactive: 0 | inactive: 0 | inactive: 0
23 | C/C=C(/C)C(=O)O[C@H]1[C@@H]2[C@H](C)C(=O)O[C@@H]2C[C@@H](C)[C@@H]2C=CC(=O)[C@]21C [Brevilin A] (2.5 µM) | inactive: 0 | inactive: 0 | inactive: 0 | inactive: 0 | inactive: 0 | inactive: 0 | inactive: 0 | inactive: 0 | inactive: 0 | inactive: 0
24 | O=c1[nH]c2ccccc2n1C1CCN(Cc2ccc(-c3[nH]c4cc5ncnc5cc4nc3-c3ccccc3)cc2)CC1 [AKT inhibitor VIII] (2.5 µM) | inactive: 0 | inactive: 0 | inactive: 0 | inactive: 0 | inactive: 0 | inactive: 0 | inactive: 0 | inactive: 0 | inactive: 0 | inactive: 0
25 | O=C(O)c1nn(Cc2ccc(Cl)cc2Cl)c2ccccc12 [Lonidamine] (10 µM) | inactive: 0 | inactive: 0 | inactive: 0 | inactive: 0 | inactive: 0 | inactive: 0 | inactive: 0 | inactive: 0 | inactive: 0 | inactive: 0
26 | Cn1cc(C2=C(c3cn(C4CCN(Cc5ccccn5)CC4)c4ccccc34)C(=O)NC2=O)c2ccccc21 [Enzastaurin] (10 µM) | inactive: 0 | inactive: 0 | inactive: 0 | inactive: 0 | inactive: 0 | inactive: 0 | inactive: 0 | inactive: 0 | inactive: 0 | inactive: 0

Quoted at random: 2 records from the list, in no set order.
Row | SMILES | kinase-Nluc reporter destabilization hit call (PDPK1) | kinase-Nluc reporter destabilization hit call (PIK4CA) | kinase-Nluc reporter destabilization hit call (PIK4CB) | kinase-Nluc reporter destabilization hit call (PLK1) | kinase-Nluc reporter destabilization hit call (PRKAA1) | kinase-Nluc reporter destabilization hit call (PRKCA) | kinase-Nluc reporter destabilization hit call (PTK2) | kinase-Nluc reporter destabilization hit call (PTK2B) | kinase-Nluc reporter destabilization hit call (RAF1) | kinase-Nluc reporter destabilization hit call [1]
13 | C=C[C@H]1CN2CC[C@]3(C(=O)Nc4ccccc43)[C@@H]2C[C@@H]1/C(=C\OC)C(=O)OC [Corynoxeine] (2 µM) | inactive: 0 | inactive: 0 | inactive: 0 | inactive: 0 | inactive: 0 | inactive: 0 | inactive: 0 | inactive: 0 | inactive: 0 | inactive: 0
11 | Cc1ccccc1-n1c(Cn2cnc3c(N)ncnc32)nc2cccc(C)c2c1=O (10 µM) | inactive: 0 | inactive: 0 | inactive: 0 | inactive: 0 | inactive: 0 | inactive: 0 | inactive: 0 | inactive: 0 | inactive: 0 | inactive: 0
